Source: patent US20230219925A1, “BENZO FIVE-MEMBERED NITROGEN HETEROCYCLIC COMPOUND AND APPLICATION THEREOF” (GUANGZHOU INSTITUTES OF BIOMEDICINE AND HEALTH CHINESE …, priority 2020, published 2023)

System: C4-2B
Assay: Cell viability (Cell-Titer GLO), C4-2B
Conditions: read-out: Cell Viability IC50 C4-2B

CNC(=O)c1ccc(N2C(=S)N(c3ccc(C#N)c(C(F)(F)F)c3)C(=O)C2(C)C)cc1F [Enzalutamide]
IC50: 23.6 ± 0.61 µM
